Taken from: PubChem BioAssay AID1159578 (Peter MacCallum Cancer Centre, 2015)

Assay: 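Genome-wide hunt for genes controlling movement of lymphatic endothelial cells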 (primary screen)
Cell system: human lymphatic endothelial cells
Knock-down reagent: siRNA pool against human genes, 40 nM
Time to read-out: 48 h after transfection
Read-out: 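High-content imaging of dye-stained cells in a scratch assay measures filled wound area and nuclei per well; duplicate means given as ratio to mock and robust z-score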
Direction: migration robust z-score: higher = faster migration into the scratch; migration relative to mock: higher = more scratch area covered than mock; nuclei per well: higher = more cells in the well
Rule for the call: 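Migration changed when robust z exceeds 2 or falls below -2 and mean nuclei number is at least 3300; otherwise not called changed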
Meaning of the calls: active = migration changed; inactive = no migration change, or too few cells
Here is a random part of about 18,000 deposited reagents. Over the whole deposit, about 1,030 (5.7%) are marked active. 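Inactive calls also include pools with fewer than 3300 nuclei, whose migration was not assessed.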 Raw values vary from plate to plate and are shown uncorrected. Unmarked entries are inactive. The numbers tell different reagents against one gene apart. Reagent sequences are not shown.

The opening 5 entries as a preview:
target | reagent | migration robust z-score | migration class with cell-count check | migration relative to mock | nuclei per well, duplicate mean
FICD (FIC domain protein adenylyltransferase) | 1 | -0.7 | migration z between -2 and 2; enough cells | 0.7 | 5168
CD79B (CD79b molecule) | 1 | 0.7 | migration z between -2 and 2; enough cells | 0.94 | 5094
MAN1A2 (mannosidase alpha class 1A member 2) | 1 | -0.47 | migration z between -2 and 2; enough cells | 0.72 | 5574
KRTAP10-5 (keratin associated protein 10-5) | 1 | 1.23 | migration z between -2 and 2; enough cells | 1.21 | 5131
ILF2 (interleukin enhancer binding factor 2) | 1 | 0.18 | migration z between -2 and 2; enough cells | 0.84 | 4265

Results, from the first entry:
target | reagent | migration robust z-score | migration class with cell-count check | migration relative to mock | nuclei per well, duplicate mean
FICD (FIC domain protein adenylyltransferase) | 1 | -0.7 | migration z between -2 and 2; enough cells | 0.7 | 5168
CD79B (CD79b molecule) | 1 | 0.7 | migration z between -2 and 2; enough cells | 0.94 | 5094
MAN1A2 (mannosidase alpha class 1A member 2) | 1 | -0.47 | migration z between -2 and 2; enough cells | 0.72 | 5574
KRTAP10-5 (keratin associated protein 10-5) | 1 | 1.23 | migration z between -2 and 2; enough cells | 1.21 | 5131
ILF2 (interleukin enhancer binding factor 2) | 1 | 0.18 | migration z between -2 and 2; enough cells | 0.84 | 4265
MRPS18C (mitochondrial ribosomal protein S18C) | 1 | 1.02 | migration z between -2 and 2; enough cells | 1.15 | 6036
FGF21 (fibroblast growth factor 21) | 1 | 1.48 | migration z between -2 and 2; enough cells | 1.09 | 5976
DHX15 (DEAH-box helicase 15) | 1 | 0.65 | migration z between -2 and 2; enough cells | 0.93 | 5810
HEXD (hexosaminidase D) | 1 | -0.66 | migration z between -2 and 2; enough cells | 0.72 | 6012
PLEKHG4 (pleckstrin homology and RhoGEF domain containing G4) | 1 | -0.46 | migration z between -2 and 2; enough cells | 0.77 | 5428
SPANXB1 (SPANX family member B1) | 1 | -0.02 | migration z between -2 and 2; enough cells | 0.88 | 5723
SPANXB1 (SPANX family member B1) | 2 | -1.14 | migration z between -2 and 2; enough cells | 0.58 | 4120
C2orf66 (chromosome 2 open reading frame 66) | 1 | -0.84 | migration z between -2 and 2; enough cells | 0.66 | 4263
CACUL1 (CDK2 associated cullin domain 1) | 1 | 0.83 | migration z between -2 and 2; enough cells | 0.96 | 5472
XRCC2 (X-ray repair cross complementing 2) | 1 | -0.28 | migration z between -2 and 2; enough cells | 0.75 | 5952
EPB41L5 (erythrocyte membrane protein band 4.1 like 5) | 1 | 0.26 | migration z between -2 and 2; enough cells | 0.96 | 5235
GFOD2 (Gfo/Idh/MocA-like oxidoreductase domain containing 2) | 1 | -0.94 | migration z between -2 and 2; enough cells | 0.62 | 4954
COX4I1 (cytochrome c oxidase subunit 4I1) | 1 | 1.32 | migration z between -2 and 2; enough cells | 1.06 | 6141
DIS3L (DIS3 like exosome 3'-5' exoribonuclease) | 1 | 1.42 | migration z between -2 and 2; enough cells | 1.25 | 6590
SLC5A10 | 1 | -0.66 | migration z between -2 and 2; enough cells | 0.72 | 6924
RP2 (RP2 activator of ARL3 GTPase) | 1 | 0.11 | migration z between -2 and 2; enough cells | 0.82 | 6825
WFDC6 (WAP four-disulfide core domain 6) | 1 | -0.48 | migration z between -2 and 2; enough cells | 0.76 | 5822
LRRD1 (leucine rich repeats and death domain containing 1) | 1 | -1.54 | migration z between -2 and 2; enough cells | 0.48 | 3358
TMEM91 (transmembrane protein 91) | 1 | 1.17 | migration z between -2 and 2; enough cells | 1.19 | 5008
DACH2 (dachshund family transcription factor 2) | 1 | -0.15 | migration z between -2 and 2; enough cells | 0.84 | 5852
AGXT2 (alanine--glyoxylate aminotransferase 2) | 1 | -0.86 | migration z between -2 and 2; enough cells | 0.64 | 5970
COG5 (component of oligomeric golgi complex 5) | 1 | -0.54 | migration z between -2 and 2; enough cells | 0.74 | 5604
UBE2E2 (ubiquitin conjugating enzyme E2 E2) | 1 | 0.93 | migration z between -2 and 2; enough cells | 0.98 | 5582
EIF3G (eukaryotic translation initiation factor 3 subunit G) | 1 | -2.08 (active) | migration z below -2; enough cells | 0.4 | 4972
KDF1 (keratinocyte differentiation factor 1) | 1 | -3.67 | under 3300 nuclei; migration not judged | -0.09 | 3088
TMEM9B (TMEM9 domain family member B) | 1 | 0.97 | migration z between -2 and 2; enough cells | 1.14 | 5987
ATP5MC2 (ATP synthase membrane subunit c locus 2) | 1 | -0.24 | migration z between -2 and 2; enough cells | 0.82 | 6268
HLA-DPB1 (major histocompatibility complex, class II, DP beta 1) | 1 | -0.86 | migration z between -2 and 2; enough cells | 0.64 | 6124
FBXO16 (F-box protein 16) | 1 | -1.17 | migration z between -2 and 2; enough cells | 0.58 | 5114
PHLPP2 (PH domain and leucine rich repeat protein phosphatase 2) | 1 | 0.6 | migration z between -2 and 2; enough cells | 0.92 | 4884
ZNF25 (zinc finger protein 25) | 1 | -0.01 | migration z between -2 and 2; enough cells | 0.88 | 6302
AMY1B (amylase alpha 1B) | 1 | -0.64 | migration z between -2 and 2; enough cells | 0.72 | 5541
MMRN2 (multimerin 2) | 1 | -0.84 | migration z between -2 and 2; enough cells | 0.67 | 5576
ARFGAP1 (ARF GTPase activating protein 1) | 1 | -0.34 | migration z between -2 and 2; enough cells | 0.74 | 4654
DMPK (DM1 protein kinase) | 1 | -6.82 | under 3300 nuclei; migration not judged | -0.51 | 1724
CD74 (CD74 molecule) | 1 | -0.08 | migration z between -2 and 2; enough cells | 0.79 | 5769
ADAMTSL1 (ADAMTS like 1) | 1 | 0.31 | migration z between -2 and 2; enough cells | 0.86 | 5568
ZNF174 (zinc finger protein 174) | 1 | -0.42 | migration z between -2 and 2; enough cells | 0.72 | 5102
TLR9 (toll like receptor 9) | 1 | 1.79 | migration z between -2 and 2; enough cells | 1.15 | 5645
E2F5 (E2F transcription factor 5) | 1 | 0.36 | migration z between -2 and 2; enough cells | 0.88 | 5876
PIGU (phosphatidylinositol glycan anchor biosynthesis class U) | 1 | 0.6 | migration z between -2 and 2; enough cells | 0.92 | 6092
DRC8 (dynein regulatory complex subunit 8) | 1 | -1.97 | migration z between -2 and 2; enough cells | 0.38 | 5752
HPR (haptoglobin-related protein) | 1 | -0.21 | migration z between -2 and 2; enough cells | 0.76 | 5808
CYB5R1 (cytochrome b5 reductase 1) | 1 | 0.39 | migration z between -2 and 2; enough cells | 0.88 | 4946
OR14A16 (olfactory receptor family 14 subfamily A member 16) | 1 | -2.15 (active) | migration z below -2; enough cells | 0.32 | 4452
TMSB4X (thymosin beta 4 X-linked) | 1 | 1.97 | migration z between -2 and 2; enough cells | 1.4 | 6746
CHSY3 (chondroitin sulfate synthase 3) | 1 | -2.88 (active) | migration z below -2; enough cells | 0.25 | 5814
RLN3 (relaxin 3) | 1 | 0.38 | migration z between -2 and 2; enough cells | 0.98 | 4955
SPG21 (SPG21 abhydrolase domain containing, maspardin) | 1 | -0.28 | migration z between -2 and 2; enough cells | 0.81 | 5634
OTOA (otoancorin) | 1 | 0.4 | migration z between -2 and 2; enough cells | 0.99 | 5615
LMOD1 (leiomodin 1) | 1 | -0.5 | migration z between -2 and 2; enough cells | 0.76 | 4806
UGT1A6 (UDP glucuronosyltransferase family 1 member A6) | 1 | 0.13 | migration z between -2 and 2; enough cells | 0.83 | 6016
